From paper PMC10333084
No constants are given. Whether binding was seen depends on the method and setting. Binding seen in cells or lysates may run through a third protein. Some binding calls cover weakened binding; strength is not graded here.

Sequences of proteins named here, by UniProt entry; tags and fusion partners are left off.
UniProt Q8TAQ2: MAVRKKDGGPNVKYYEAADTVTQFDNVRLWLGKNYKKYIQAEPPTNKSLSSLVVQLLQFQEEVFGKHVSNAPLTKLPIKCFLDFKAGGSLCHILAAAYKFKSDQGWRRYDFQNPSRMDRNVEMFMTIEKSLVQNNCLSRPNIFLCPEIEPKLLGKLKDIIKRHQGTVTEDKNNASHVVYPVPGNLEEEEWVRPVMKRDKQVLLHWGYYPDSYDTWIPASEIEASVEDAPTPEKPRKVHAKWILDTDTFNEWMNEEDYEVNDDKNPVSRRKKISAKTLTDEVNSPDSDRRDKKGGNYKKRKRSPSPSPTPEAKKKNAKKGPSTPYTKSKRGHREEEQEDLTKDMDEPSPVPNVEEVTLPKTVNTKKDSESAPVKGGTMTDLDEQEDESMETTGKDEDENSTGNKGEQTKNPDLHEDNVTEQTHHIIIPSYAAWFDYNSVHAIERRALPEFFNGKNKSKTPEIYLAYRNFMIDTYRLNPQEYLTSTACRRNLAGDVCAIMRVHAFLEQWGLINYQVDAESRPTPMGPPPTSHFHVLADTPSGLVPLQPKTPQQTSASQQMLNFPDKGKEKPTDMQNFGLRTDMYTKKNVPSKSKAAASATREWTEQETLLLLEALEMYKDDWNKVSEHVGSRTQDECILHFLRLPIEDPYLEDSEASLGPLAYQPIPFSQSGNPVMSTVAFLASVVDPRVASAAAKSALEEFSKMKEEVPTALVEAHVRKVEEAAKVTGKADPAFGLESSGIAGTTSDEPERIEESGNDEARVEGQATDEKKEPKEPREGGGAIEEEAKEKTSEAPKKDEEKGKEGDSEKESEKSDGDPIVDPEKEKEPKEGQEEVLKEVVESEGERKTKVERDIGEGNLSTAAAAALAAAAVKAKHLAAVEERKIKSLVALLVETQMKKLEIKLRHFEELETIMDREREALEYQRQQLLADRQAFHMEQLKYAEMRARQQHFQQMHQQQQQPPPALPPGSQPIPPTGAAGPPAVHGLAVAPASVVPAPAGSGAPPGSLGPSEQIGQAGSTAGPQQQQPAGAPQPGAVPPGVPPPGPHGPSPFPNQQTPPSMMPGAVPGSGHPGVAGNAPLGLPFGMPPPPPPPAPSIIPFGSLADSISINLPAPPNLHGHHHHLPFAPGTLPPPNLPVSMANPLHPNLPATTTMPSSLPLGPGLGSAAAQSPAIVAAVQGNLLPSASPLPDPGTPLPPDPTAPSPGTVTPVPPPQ

Target: T1, F-box only protein 28 (FBXO28) (UniProt Q9NVF7)
T1 sequence: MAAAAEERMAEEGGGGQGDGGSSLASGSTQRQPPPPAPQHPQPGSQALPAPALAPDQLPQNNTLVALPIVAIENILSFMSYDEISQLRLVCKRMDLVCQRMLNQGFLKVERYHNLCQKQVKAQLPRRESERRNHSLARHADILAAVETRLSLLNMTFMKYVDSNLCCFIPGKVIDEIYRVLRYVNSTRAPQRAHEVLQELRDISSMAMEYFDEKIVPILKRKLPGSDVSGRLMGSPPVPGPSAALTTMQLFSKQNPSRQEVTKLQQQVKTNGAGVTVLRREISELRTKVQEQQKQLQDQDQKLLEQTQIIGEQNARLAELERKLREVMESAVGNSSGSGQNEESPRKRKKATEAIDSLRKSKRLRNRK
Test: co-IP; cell lysate pre-cleared with protein A+G, incubated with anti-Flag, anti-SMARCC2, anti-HA or normal rabbit IgG overnight at 4 °C, protein A+G for 4 hours; SDS-PAGE and western blot

binding: binds
Substance: SMARCC2 (from UniProt Q8TAQ2 1-1214)
